One substance from paper PMC3710277 can be followed below.

Sequences of proteins named here, by UniProt entry; tags and fusion partners are left off.
UniProt Q92949: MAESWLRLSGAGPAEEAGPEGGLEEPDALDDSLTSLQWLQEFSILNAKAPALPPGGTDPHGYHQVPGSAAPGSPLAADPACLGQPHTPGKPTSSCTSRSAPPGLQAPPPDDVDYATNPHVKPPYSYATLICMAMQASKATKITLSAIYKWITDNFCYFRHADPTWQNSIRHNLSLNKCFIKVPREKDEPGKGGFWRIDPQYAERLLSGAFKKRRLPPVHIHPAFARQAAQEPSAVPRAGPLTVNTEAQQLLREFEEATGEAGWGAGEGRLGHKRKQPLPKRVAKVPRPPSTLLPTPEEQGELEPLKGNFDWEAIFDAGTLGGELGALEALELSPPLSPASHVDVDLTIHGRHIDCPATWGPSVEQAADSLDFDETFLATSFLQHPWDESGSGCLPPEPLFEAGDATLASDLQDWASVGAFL

No constants are given. Whether binding was seen depends on the method and setting. Binding seen in cells or lysates may run through a third protein. Some results given as binding are weak or reduced against the parent protein; the word gives no strength. Tags and fused reporters may be left off the sequences shown.

This experiment deals with T1, FLAG-tagged regulatory factor X3 (RFX3) (human) (UniProt P48380).
T1 sequence: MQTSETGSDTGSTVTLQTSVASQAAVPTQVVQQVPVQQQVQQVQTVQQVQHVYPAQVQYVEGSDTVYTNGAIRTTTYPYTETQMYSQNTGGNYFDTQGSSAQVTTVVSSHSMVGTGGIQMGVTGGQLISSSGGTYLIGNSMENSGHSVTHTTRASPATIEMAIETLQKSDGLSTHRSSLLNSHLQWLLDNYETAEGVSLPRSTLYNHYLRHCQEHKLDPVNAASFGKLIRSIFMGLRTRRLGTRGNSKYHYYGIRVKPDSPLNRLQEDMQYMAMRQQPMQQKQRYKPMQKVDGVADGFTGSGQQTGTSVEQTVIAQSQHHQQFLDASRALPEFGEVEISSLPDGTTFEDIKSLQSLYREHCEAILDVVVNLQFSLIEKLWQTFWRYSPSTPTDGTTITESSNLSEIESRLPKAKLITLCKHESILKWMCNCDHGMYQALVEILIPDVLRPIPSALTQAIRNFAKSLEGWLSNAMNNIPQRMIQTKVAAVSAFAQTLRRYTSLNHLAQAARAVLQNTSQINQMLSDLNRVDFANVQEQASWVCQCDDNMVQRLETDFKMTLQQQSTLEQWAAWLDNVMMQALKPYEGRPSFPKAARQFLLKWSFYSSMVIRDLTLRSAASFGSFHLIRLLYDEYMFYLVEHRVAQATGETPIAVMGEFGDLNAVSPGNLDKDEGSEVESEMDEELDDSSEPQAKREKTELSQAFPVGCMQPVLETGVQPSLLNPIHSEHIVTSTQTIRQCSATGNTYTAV
Nature of the experiment: co-IP; 293A cells co-transfected with PGK.FOXJ1 and CMV.FLAG-RFX3; lysates prepared after 48 hr, incubated overnight with Anti-FLAG M2 affinity gel, eluted with FLAG peptide; Western blot with antibodies for FOXJ1, FLAG and GAPDH. In general terms: In western blotting, separated proteins are transferred to a membrane and probed.

As to “Forkhead box J1 (FOXJ1) (from UniProt Q92949 1-421)”, the binding result was “binds”.
